Results deposited as PubChem BioAssay AID1259308 (NCATS, 2017)
The whole screen tested about 59,000 reagents; below is a part drawn at random. In the full data, about 1,510 (2.6%) got an active call. 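Calls use total luciferase alone and ignore viability, so some active siRNAs may act by altering cell number.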 The numbers tell different reagents against one gene apart. Further read-outs or replicates are left out here. No sequences are given here.

- Assay: 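Knock-downs that increase output of a recombinant reporter protein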 (primary screen)
- Cells: human HEK293 embryonic kidney cells stably expressing firefly luciferase (HEK-CMV-Luc2-Hygro)
- Knock-down reagent: single siRNA against human genes, 0.8 pmol siRNA per well
- Time to read-out: 72 h
- Measurement: 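Reporter luminescence and viable-cell signal on separate replicate plates, given as percent of non-targeting control and median/MAD z-scores, plus per-cell luciferase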
- Direction: total luciferase, z-score and total luciferase, % of control: higher = more reporter protein produced
- Rule for the call: 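Active when the median/MAD z-score for overall luciferase is greater than 3; a gene was taken forward for validation with new siRNAs if at least two of its three siRNAs passed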
- Meaning of the calls: active = raised luciferase; inactive = no rise

What did the screen give for RNF111 (ring finger protein 111) #1?
total luciferase, z-score: -0.487; total luciferase, % of control: 72.2; Outcome: inactive

With RNF111 (ring finger protein 111) #2, what does the deposit list?
total luciferase, z-score: 0.74; total luciferase, % of control: 96.6; Outcome: inactive

Which result is listed for RNF111 (ring finger protein 111) #3?
total luciferase, z-score: -0.973; total luciferase, % of control: 62.5; Outcome: inactive

How did the screen score JPH4 (junctophilin 4) #1?
total luciferase, z-score: 0.739; total luciferase, % of control: 96.6; Outcome: inactive

With JPH4 (junctophilin 4) #2, what was measured?
total luciferase, z-score: -1.57; total luciferase, % of control: 50.8; Outcome: inactive

For JPH4 (junctophilin 4) #3, how do the results read?
total luciferase, z-score: 2.88; total luciferase, % of control: 139; Outcome: inactive

For IDNK (IDNK gluconokinase) #1, what does the deposit list?
total luciferase, z-score: -0.241; total luciferase, % of control: 77.1; Outcome: inactive

What did the screen give for IDNK (IDNK gluconokinase) #2?
total luciferase, z-score: 0.833; total luciferase, % of control: 98.5; Outcome: inactive

What did the screen give for IDNK (IDNK gluconokinase) #3?
total luciferase, z-score: 0.449; total luciferase, % of control: 90.8; Outcome: inactive

What is on record for ZBTB16 (zinc finger and BTB domain containing 16) #1?
total luciferase, z-score: -1.65; total luciferase, % of control: 49.1; Outcome: inactive

What is on record for ZBTB16 (zinc finger and BTB domain containing 16) #2?
total luciferase, z-score: -0.138; total luciferase, % of control: 79.1; Outcome: inactive

Which result is listed for ZBTB16 (zinc finger and BTB domain containing 16) #3?
total luciferase, z-score: 1.28; total luciferase, % of control: 107; Outcome: inactive

How did the screen score PLAU (plasminogen activator, urokinase) #1?
total luciferase, z-score: 0.766; total luciferase, % of control: 97.1; Outcome: inactive

For PLAU (plasminogen activator, urokinase) #2, what was measured?
total luciferase, z-score: -1.41; total luciferase, % of control: 53.8; Outcome: inactive

For PLAU (plasminogen activator, urokinase) #3, what was measured?
total luciferase, z-score: 0.242; total luciferase, % of control: 86.7; Outcome: inactive

A few values from above.
Value of ZBTB16 (zinc finger and BTB domain containing 16) #3 under “total luciferase, % of control”: 107
IDNK (IDNK gluconokinase) #1, Outcome: inactive
Result for PLAU (plasminogen activator, urokinase) #1 under “total luciferase, % of control”: 97.1
JPH4 (junctophilin 4) #2, Outcome = inactive
ZBTB16 (zinc finger and BTB domain containing 16) #1, total luciferase, % of control = 49.1

The results go on.
What did the screen give for ITPKB (inositol-trisphosphate 3-kinase B) #1?
total luciferase, z-score: -0.937; total luciferase, % of control: 63.2; Outcome: inactive

What is on record for ITPKB (inositol-trisphosphate 3-kinase B) #2?
total luciferase, z-score: 0.599; total luciferase, % of control: 93.8; Outcome: inactive

What is on record for ITPKB (inositol-trisphosphate 3-kinase B) #3?
total luciferase, z-score: 0.16; total luciferase, % of control: 85.1; Outcome: inactive

With LMTK1 (lemur tail kinase 1) #1, what was measured?
total luciferase, z-score: 1.21; total luciferase, % of control: 106; Outcome: inactive

What did the screen give for LMTK1 (lemur tail kinase 1) #2?
total luciferase, z-score: -0.787; total luciferase, % of control: 66.2; Outcome: inactive

With LMTK1 (lemur tail kinase 1) #3, what was measured?
total luciferase, z-score: 0.459; total luciferase, % of control: 91; Outcome: inactive

For HES1 (hes family bHLH transcription factor 1) #1, what was measured?
total luciferase, z-score: -1.26; total luciferase, % of control: 56.9; Outcome: inactive

Which result is listed for HES1 (hes family bHLH transcription factor 1) #2?
total luciferase, z-score: -1.22; total luciferase, % of control: 57.7; Outcome: inactive

With HES1 (hes family bHLH transcription factor 1) #3, what was measured?
total luciferase, z-score: 0.715; total luciferase, % of control: 96.1; Outcome: inactive

Which result is listed for TMTC3 (transmembrane O-mannosyltransferase targeting cadherins 3) #1?
total luciferase, z-score: -2.7; total luciferase, % of control: 28.1; Outcome: inactive

With TMTC3 (transmembrane O-mannosyltransferase targeting cadherins 3) #2, what does the deposit list?
total luciferase, z-score: 0.266; total luciferase, % of control: 87.2; Outcome: inactive

With TMTC3 (transmembrane O-mannosyltransferase targeting cadherins 3) #3, what does the deposit list?
total luciferase, z-score: 0.67; total luciferase, % of control: 95.2; Outcome: inactive

Which result is listed for MED6 (mediator complex subunit 6) #1?
total luciferase, z-score: -2.12; total luciferase, % of control: 39.8; Outcome: inactive

With MED6 (mediator complex subunit 6) #2, what was measured?
total luciferase, z-score: -2.14; total luciferase, % of control: 39.3; Outcome: inactive

With MED6 (mediator complex subunit 6) #3, what was measured?
total luciferase, z-score: -2.38; total luciferase, % of control: 34.5; Outcome: inactive

With GAGE1 (G antigen 1) #1, how do the results read?
total luciferase, z-score: -0.732; total luciferase, % of control: 67.3; Outcome: inactive

Which result is listed for GAGE1 (G antigen 1) #2?
total luciferase, z-score: -0.533; total luciferase, % of control: 71.3; Outcome: inactive

For GAGE1 (G antigen 1) #3, how do the results read?
total luciferase, z-score: 0.00789; total luciferase, % of control: 82; Outcome: inactive
